Experimental data reported in US20230390401A1, “RAPIDLY RELEASED BIOORTHOGONAL CAGING GROUPS” (University of Utah Research Foundation, priority 2018, published 2023).

Legend:
[1] = Tetrazine-mediated ICPr/ICPrc unmasking monitored by UV-Vis absorbance and fluorescence; conditions: reaction with DPTz; for unmasking yield based on the absorbance intensity of the product: c(probe)=1 mM, c(Tz)=3 mM, PBS:DMSO (1:1), T=37° C.
[2] = Prodrug release by DPTz assessed by HPLC; conditions: prodrug c=1 mM, DPTz c=2 mM, PBS:DMSO (1:1), T=37° C., t=4 h; 2 mM GSH with exception of ICPr-SN-38

Structure (SMILES) | fluorescence turn-on signal on liberation of the 1,8-naphthalimide [1] [fold] | unmasking yield based on the absorbance intensity of the product [1] [%] | drug release yield by HPLC [2] [%]
[C-]#[N+]CCCOc1ccc2c3c(cccc13)C(=O)N(CCOCCOCCOCCOC)C2=O [ICPr-O-NA, N-(methyl-PEG4)-4-(3-isocyanopropyl-1-oxy)-1,8-naphthalimide] | 1210 | 99.1±4.5 | 
[C-]#[N+]CCCSc1ncnc2nc[nH]c12 [ICPr-mp, 6-(3-isocyanopropyl)mercaptopurine] |  |  | 94±3
[C-]#[N+]CCCOC(=O)Nc1ccc2c3c(cccc13)C(=O)N(CCOCCOCCOCCOC)C2=O [ICPrc-NH-NA] | 76 | 93.5±2.5 | 
[C-]#[N+]CCCOC(=O)NC1CC(OC2CC(O)(C(=O)CO)Cc3c(O)c4c(c(O)c32)C(=O)c2c(OC)cccc2C4=O)OC(C)C1O (stereo not shown) [ICPrc-dox, N-(3-isocyanopropyl-1-carbamoyl)doxorubicin] |  |  | 91±4
[C-]#[N+]CCCOC(=O)N1C2CN3C4=C(C(=O)C(N)=C(C)C4=O)C(COC(N)=O)C3(OC)C21 (stereo not shown) [ICPrc-mmC, N-(3-isocyanopropyl-1-carbamoyl)Mitomycin C] |  |  | 79±6
